Measurements from article PMC5063806, “Data for peptide-binding assay with oriented immobilization of GRP78 in Biacore” (Data in Brief, 2016).
No constants are given. Whether binding was seen depends on the method and setting. Some entries that bind do so weakly or less than the wild type.

Amino acid sequences for entries named in this document (tags omitted). Residues count along the entry.
UniProt P11021, residues 19-654: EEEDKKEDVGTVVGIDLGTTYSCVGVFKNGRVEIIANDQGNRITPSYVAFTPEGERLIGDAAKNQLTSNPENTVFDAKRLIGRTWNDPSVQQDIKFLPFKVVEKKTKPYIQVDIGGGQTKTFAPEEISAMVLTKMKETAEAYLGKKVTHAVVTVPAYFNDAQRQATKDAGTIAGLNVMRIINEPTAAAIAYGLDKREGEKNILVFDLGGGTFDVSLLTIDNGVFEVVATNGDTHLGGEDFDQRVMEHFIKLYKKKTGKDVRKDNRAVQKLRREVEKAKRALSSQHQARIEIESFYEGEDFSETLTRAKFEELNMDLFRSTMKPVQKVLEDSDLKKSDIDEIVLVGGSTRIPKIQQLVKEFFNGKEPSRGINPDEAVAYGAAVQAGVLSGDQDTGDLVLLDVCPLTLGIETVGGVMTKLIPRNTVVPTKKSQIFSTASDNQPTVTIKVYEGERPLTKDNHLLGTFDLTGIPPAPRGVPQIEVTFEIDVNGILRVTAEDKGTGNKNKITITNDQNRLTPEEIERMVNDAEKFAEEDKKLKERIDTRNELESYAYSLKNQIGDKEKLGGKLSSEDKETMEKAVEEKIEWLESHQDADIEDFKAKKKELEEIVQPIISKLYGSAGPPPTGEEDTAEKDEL

Molecular target: T1, human GRP78, N-His-tagged (human, UniProt P11021 19-654)
T1 construct: GRP78, human; 6-His tag at the N-terminus; also called N-His-tagged GRP78; not shown: His6, N-terminal, kept
Experiment: SPR; modified protocol, Biacore X: N-His-tagged GRP78 covalently immobilised (EDC/NHS, Ni2+ orientation, about 5000~6000 RU) on chip NTA; running buffer HBS-P pH 7.4 with 1 mM glycine; L-peptide 6.25-100 uM; both peptides at 50 uM in Fig. 3; fit with BIAevaluation 4.1, default settings; both purified

binding: binds
Binder: WIFPWIQL [WIFPWIQL (W) peptide]
